According to PubChem BioAssay AID1347076 (National Center for Advancing Translational Sciences (NCATS), 2019):
Where “and” joins values, the source holds several entries; their conditions need not be identical. Equal values may be shown once. The whole screen tested about 400,000 compounds, of which about 13,000 (3.2%) were called active. This list was built around the results that the source calls inconclusive (neither active nor inactive); the mix of calls is not that of the screen. Calls follow the shape of the dose curve; as a rule, active = well fitted cell-killing curve with a large enough effect; inconclusive = small, poorly fitted or top-dose-only effect, or effect the other way; inactive = flat fitted curve, though single readings scatter. Potencies beside an inconclusive call are fits to weak or partial responses and may not hold up.

Assay: qHTS assay for MDR1-selective chemotherapeutics: Primary screen using the drug-selected MDR subline cells KB-V1; also: nearly all actives have a fitted effect of over 60% in size
Settings: KB-V1 MDR cells viability, CellTiter-Glo, 72 h; activity change, negative = cytotoxicity: at 46.1 µM (top of the series)
Method in brief: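 qHTS viability screen in drug-selected KB-V1 MDR cells: 72 h compound treatment at 37 degrees C, ATP luminescence end point.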
% is scaled to controls: 0 for no effect and ±100 for the full control effect; potency is read from the fitted curve at half-maximal effect.

| SMILES | Potency | activity change, negative = cytotoxicity |
| --- | --- | --- |
| CCCCCCSc1ccc([C@H]2N[C@@](Cc3ccccc3)(C(=O)OC)[C@H]3C(=O)N(CC)C(=O)[C@@H]23)cc1 | inconclusive: 14.6 µM [cytotoxic, partial curve, poor fit] |  |
| O=S(=O)(Nc1cc(C(F)(F)F)ccc1N1CCOCC1)c1ccc2ccccc2c1 | inconclusive: 13 µM [cytotoxic, partial curve] |  |
| CC(C)(C)OC(=O)NCCCCCNC(=O)c1[nH]cnc1C(=O)Nc1ccccc1 | inconclusive: 29.1 µM [cytotoxic, single point] |  |
| CN(Cc1cccs1)C(=O)COC(=O)CNC(N)=O | inconclusive: 29.1 µM [rising, single point] |  |
| COc1ccc2c(c1)[C@]1(C[C@H](O)CO1)C(=O)N2C |  | inactive: 5.77% |
| Cc1ccc(-c2cn(-c3ccc(OC(F)F)cc3)c3[n+]2CCCCC3)cc1 |  | inactive: 28% |
| COc1ccc(NC(=O)N(Cc2cc3ccc(OC)cc3[nH]c2=O)CC2CCCO2)cc1 (centres undefined) | inconclusive: 29.1 µM [cytotoxic, single point] |  |
| C=CCN1CC(=O)N2C(c3ccccc3)c3[nH]c4ccccc4c3C[C@H]2C1=O (some centres undefined) |  | inactive: -17.7% |
| O=C(NCCc1ccccc1)c1ccc2c(c1)OCCO2 | inconclusive: 14.6 µM [cytotoxic, partial curve] |  |
| Oc1cccc2ccc(/C=C/c3ccc(Br)s3)nc12 | inconclusive: 29.1 µM [rising, single point] |  |
| Cc1ccc(C(=O)NCC(c2ccco2)N2CCc3ccccc3C2)cc1 (centres undefined) | inconclusive: 7.31 µM [cytotoxic, partial curve] |  |
| CN(C)c1ccc(/C=C(\C#N)c2ccccn2)cc1 | inconclusive: 23.1 µM [cytotoxic, partial curve] |  |
| Cc1ccc(S(=O)(=O)N2CCOCC2)cc1C(=O)Nc1ccc(-c2cn3ccsc3n2)cc1 | inconclusive: 22.4 µM [cytotoxic, partial curve, poor fit] |  |
| Cc1ccc(-n2c(SCCC(C)C)nc3sc4c(c3c2=O)CC(C)(C)OC4)cc1 | inconclusive: 8.2 µM [rising, partial curve] |  |
| Cc1cccc(/C(N)=N/OC(=O)c2ccoc2C)c1 | inconclusive: 18.4 µM [cytotoxic, single point] |  |
| COc1ccc(N2CCN(C(=O)COc3ccc4c(C)cc(=O)oc4c3)CC2)cc1 | inconclusive: 18.4 µM [cytotoxic, single point] |  |
| Cc1cccc(N(C)S(=O)(=O)c2c[nH]c3ccc([N+](=O)[O-])cc23)c1 |  | inconclusive: -66.9% |
| CC(=O)c1ccc(NC(=O)COc2ccccc2-c2nc(-c3ccccc3)no2)cc1 | inconclusive: 20.6 µM [rising, single point] |  |
| CC1CC1C(=O)N(C)CC(=O)Nc1cccc(F)c1 (centres undefined) |  | inactive: 3.84% |
| CCc1ccc(C(=O)c2cn(CC(=O)Nc3ccc4c(c3)OCCO4)c3ccc(C)cc3c2=O)cc1 | inconclusive: 7.31 µM [rising, partial curve] |  |
| CCCCC(=O)NC(c1ccccc1Cl)c1ccc2cccnc2c1O (centres undefined) | inconclusive: 10.3 µM [cytotoxic, partial curve, poor fit] |  |
| O=c1c2ccccc2nnn1CSc1ccc2c(c1)OCCO2 | active: 23.1 µM |  |
| C/C(=N\NC(=O)CNC(=O)C1COc2ccccc2O1)c1ccco1 (centres undefined) | inconclusive: 8.2 µM [rising, partial curve, poor fit] |  |

| SMILES | Potency | activity change, negative = cytotoxicity |
| --- | --- | --- |
| CC(Oc1ccccc1)C(=O)N1CCN(Cc2cc(=O)n3nc(-c4ccccc4Cl)sc3n2)CC1 (centres undefined) |  | inactive: -4.45% |
| CCOC(=O)c1c(C)[nH]c(C)c1S(=O)(=O)NCC(=O)N1CCN(c2cc(Cl)ccc2C)CC1 |  | inactive: -12% |
| Cc1ccc(S(=O)(=O)N2CCOCC2)cc1C(=O)OCC(=O)N1CCc2ccccc2C1 | active: 11.6 µM |  |
| CCC(C)Sc1ccc(-c2nc3ccccn3c2NCc2ccccc2)cc1OC (centres undefined) | inconclusive: 29.1 µM [cytotoxic, single point] |  |
| Cc1cccc(C(=O)NCC(=O)OCC(=O)NCCNC(=O)COC(=O)CNC(=O)c2cccc(C)c2)c1 | inconclusive: 29.1 µM [rising, single point] |  |
| Cc1cc(C)cc(NC(=O)C(C)N2C(=O)c3ccccc3C2=O)c1 (centres undefined) | inconclusive: 16.4 µM [rising, partial curve, poor fit] |  |
| O=C(c1ccc2ccccc2c1)N1CCN(c2ccc(O)cc2)CC1 | active: 23.1 µM |  |
| COc1ccc(OC)c(NC(=O)c2nnn(Cc3ccc(Br)cc3F)c2N)c1 |  | inactive: 0% |
| CN1CCc2c(OCC(=O)N3N=C(c4cccs4)CC3c3ccc(F)cc3)cccc2C1=O (centres undefined) |  | inactive: -17.9% |
| COc1cc(OC)cc(C(=O)NNC(=O)c2nn(C)c(=O)c3ccccc23)c1 | active: 13 µM |  |
| COc1ccc(/C=C/C(=O)c2ccc(NS(=O)(=O)c3ccc(C)cc3)cc2)cc1O | inconclusive: 23.1 µM [cytotoxic, single point] |  |
| CCNS(=O)(=O)c1ccc(NC(=S)N2CCc3ccccc32)cc1 | inconclusive: 20.6 µM [rising, single point] |  |
| O=C(c1ccc(Cn2c(=O)[nH]c3ccccc3c2=O)cc1)N1CCN(c2ccccc2)CC1 | active: 20.6 µM |  |
| COCCn1c(SCC#N)nnc1-c1ccc([N+](=O)[O-])cc1 | inconclusive: 14.6 µM [rising, partial curve] |  |
| CCOC(=O)c1ccc(NC(=O)NCc2ccccc2OC)cc1 | inconclusive: 13 µM [cytotoxic, partial curve] |  |
| CSCCC1NC(=O)N(C(C)C(=O)Nc2cc(Cl)cc(Cl)c2)C1=O (centres undefined) | inconclusive: 29.1 µM [cytotoxic, single point] |  |
| Cn1c(=O)n(CCc2ccccc2)c(=O)c2c1nc1n2CCCN1CCc1ccccc1 | active: 23.1 µM |  |
| COc1ccc(NC(=O)CN(C)C(=O)CCSc2ccc(F)cc2)cc1 | inconclusive: 18.4 µM [cytotoxic, single point] |  |
| Clc1ccc(CSc2nncn2-c2ccc3c(c2)OCCO3)cc1 | inconclusive: 23.1 µM [cytotoxic, single point] |  |
| C=CC[C@]12C[C@@H](OC)C(=O)C=C1O[C@@H](c1ccc(OC)c(OC)c1)[C@H]2C |  | inactive: 0% |
| CC(C)(C)OC(=O)N1CC=C2C(C#N)=C(N)C(C#N)(C#N)C(c3cccs3)C2C1 (centres undefined) | active: 9.2 µM |  |
| CCS(=O)(=O)N1Cc2ccccc2CC1C(=O)Nc1nc2c(C)cccc2s1 (centres undefined) | active: 2.91 µM |  |
| O=C(Nc1ccc([N+](=O)[O-])cc1Cl)c1ccccc1O | active: 5.17 µM and active: 16.4 µM |  |

| SMILES | Potency | activity change, negative = cytotoxicity |
| --- | --- | --- |
| O=C(CS(=O)(=O)c1nc(-c2ccc(Cl)cc2)cn1-c1ccccc1)Nc1ccc(F)cc1F | inconclusive: 23.1 µM [cytotoxic, single point] |  |
| CCOC(=O)CN(C(=O)COc1nc(C)cc(C)c1C#N)c1cccc(Cl)c1 | inconclusive: 4.11 µM [cytotoxic, partial curve] |  |
| COc1cc(C2Nc3ccc4ccccc4c3C3=C2C(=O)CC(C)(C)C3)ccc1OC(C)C(=O)O (centres undefined) | inconclusive: 11.6 µM [rising, partial curve] |  |
| CCc1ccc(-c2cc(C(F)(F)F)n3nc(C(=O)Nc4cnn(Cc5ccc(C)cc5)c4)cc3n2)s1 | active: 3.66 µM |  |
| Cc1ccc(/C=C(\CCC(=O)O)c2nc3ccccc3s2)cc1[N+](=O)[O-] | inconclusive: 16.4 µM [cytotoxic, partial curve, poor fit] |  |
| C=CC[C@H](CC(=O)N(CCO)Cc1ccccc1)C(=O)N[C@@H](COC(=O)[C@H](CC=C)CC(=O)OC(C)(C)C)Cc1c[nH]c2ccccc12 | inconclusive: 29.1 µM [cytotoxic, single point] |  |
| CCc1cc(Cn2nc(-c3ccccc3)cc2C(=O)NCc2cccc(Br)c2)on1 | active: 23.1 µM |  |
| CCc1nnc(NC(=O)c2ccc(OC)cc2OC)s1 | inconclusive: 10.3 µM [cytotoxic, partial curve] |  |
| Cc1onc(-c2c(F)cccc2Cl)c1C(=O)NC(=S)NCc1cccnc1 | inconclusive: 14.6 µM [cytotoxic, partial curve, poor fit] |  |
| O=C(CC[C@H]1O[C@@H](n2ccc(=O)[nH]c2=O)[C@H](O)[C@@H]1O)NCC1CCCO1 (some centres undefined) |  | inactive: 13.8% |
| CC(C)NC(=O)C1(C#N)C=C1c1ccccc1 (centres undefined) | inconclusive: 29.1 µM [cytotoxic, single point] |  |
| COc1ccc(NC(=O)CCCn2c(=O)c3sccc3n(Cc3ccc(C)cc3)c2=O)cc1 |  | inactive: -30.5% |
| CCOC(=O)c1c[nH][nH]c1=O |  | inactive: 5.9% |
| CC(=O)c1c(C)cc(C)c(CSc2nnc(-c3ccco3)o2)c1C | inconclusive: 8.2 µM [cytotoxic, partial curve, poor fit] |  |
| O=C(CN1CCN(C(=O)c2ccco2)CC1)Nc1cccc([N+](=O)[O-])c1 | inconclusive: 18.4 µM [cytotoxic, single point] |  |
| Cc1ccsc1/C=N/NC(=O)c1cccs1 |  | inactive: -0.706% |
| CCn1c(=O)cc(SCC(=O)NCc2ccc(C)o2)c2ccccc21 | inconclusive: 29.1 µM [cytotoxic, single point] |  |
| O=C(NCc1cccc(C(F)(F)F)c1)C1CCCN(c2ncccn2)C1 (centres undefined) |  | inactive: 0% |
| COC(=O)c1ccc(CSc2nc3ccncc3n2Cc2ccc(F)cc2)cc1 |  | inactive: -8.45% |
| O=C(c1cc2ccccc2oc1=O)N(Cc1ccco1)CC1CCCO1 (centres undefined) | active: 11.6 µM |  |
| O=C1CC2CCCC(C1)S2=O (centres undefined) |  | inactive: -3.67% |
| CC(C)Nc1nc(Nc2ccc(C#N)cc2)c2sccc2n1 |  | inactive: -13.7% |
| COc1ccc(Cc2nnc(-c3ccc(F)cc3)o2)cc1OC | inconclusive: 5.8 µM [cytotoxic, full curve] |  |

A run of entries taken from the entries so far, for reference:

| SMILES | Potency | activity change, negative = cytotoxicity |
| --- | --- | --- |
| CCc1nnc(NC(=O)c2ccc(OC)cc2OC)s1 | inconclusive: 10.3 µM [cytotoxic, partial curve] |  |
| Cc1onc(-c2c(F)cccc2Cl)c1C(=O)NC(=S)NCc1cccnc1 | inconclusive: 14.6 µM [cytotoxic, partial curve, poor fit] |  |
| O=C(CC[C@H]1O[C@@H](n2ccc(=O)[nH]c2=O)[C@H](O)[C@@H]1O)NCC1CCCO1 (some centres undefined) |  | inactive: 13.8% |
